System: hindlimb ischemia
Test: Rat hindlimb model of collateral development: blood flow during treadmill exercise (microspheres)
Type: in vivo
Details: mean ± SE
Excerpt: The Rat hindlimb model is used to evaluate angiogenic properties of novel HPTPb inhibitors. Specifically to determine if there is enhanced blood flow to the collateral dependent region of the leg post ischemia when the animal is in an exercise challenged state. […] An initial surgery is done to create hindlimb ischemia and implant osmotic pumps essentially as previously described with minor alterations. […] Following induction, animals are transferred to a surgical mat and anesthesia is continued via a non-rebreathing circuit. A warming lamp is positioned above the rat and a rectal probe is placed to monitor the animal's body temperature. The groin areas bilaterally are clipped and prepared with alternating Betadine and alcohol scrubs (3×) and a sterile drape is placed over the rat. The left femoral artery is exposed through a skin incision and subsequently ligated in two positions 1 cm apart; distal to the inguinal ligament and proximal to the femoral circumflex artery. The skin is closed using either skin staples or Vetbond. The same procedure is repeated on the right side. […] Prior to implantation, osmotic pumps are filled with VEGF165 solution at a dose of 15 μg/kg/day, and primed overnight inside sterile saline beakers in a water bath (37° C.). […] Following euthanasia, tissues are removed, trimmed, weighed, recorded, and placed in marked tubes for processing. […]

CCc1csc([C@H](Cc2ccc(NS(=O)(=O)O)cc2)NC(=O)[C@H](Cc2ccccc2)NC(=O)OC(C)(C)C)n1 [4-{(S)-2-[(S)-2-(tert-Butoxycarbonylamino)-3-phenylpropanamido]-2-(4-ethylthiazol-2-yl)ethyl}phenylsulfamic acid]
Blood Flow During exercise Kidney (continuous SubQ infusion High 15 mg/kg/d): 319 ± 37.9 ml/min/100 g | Blood Flow During exercise Kidney (continuous SubQ infusion Low 5 mg/kg/d): 318 ± 30.1 ml/min/100 g

Reference: US8258311B2, “Human protein tyrosine phosphatase inhibitors and methods of use” (Aerpio Therapeutics Inc., priority 2006, dated 2012)
